In article PMC4825987:
Results are given in words; binding and its absence hold for the method and conditions named. Some results given as binding are weak or reduced against the parent protein; the word gives no strength. Tags and fused reporters may be left off the sequences shown.

By UniProt entry, the sequences of proteins in these tests, tags left out.
UniProt P49736: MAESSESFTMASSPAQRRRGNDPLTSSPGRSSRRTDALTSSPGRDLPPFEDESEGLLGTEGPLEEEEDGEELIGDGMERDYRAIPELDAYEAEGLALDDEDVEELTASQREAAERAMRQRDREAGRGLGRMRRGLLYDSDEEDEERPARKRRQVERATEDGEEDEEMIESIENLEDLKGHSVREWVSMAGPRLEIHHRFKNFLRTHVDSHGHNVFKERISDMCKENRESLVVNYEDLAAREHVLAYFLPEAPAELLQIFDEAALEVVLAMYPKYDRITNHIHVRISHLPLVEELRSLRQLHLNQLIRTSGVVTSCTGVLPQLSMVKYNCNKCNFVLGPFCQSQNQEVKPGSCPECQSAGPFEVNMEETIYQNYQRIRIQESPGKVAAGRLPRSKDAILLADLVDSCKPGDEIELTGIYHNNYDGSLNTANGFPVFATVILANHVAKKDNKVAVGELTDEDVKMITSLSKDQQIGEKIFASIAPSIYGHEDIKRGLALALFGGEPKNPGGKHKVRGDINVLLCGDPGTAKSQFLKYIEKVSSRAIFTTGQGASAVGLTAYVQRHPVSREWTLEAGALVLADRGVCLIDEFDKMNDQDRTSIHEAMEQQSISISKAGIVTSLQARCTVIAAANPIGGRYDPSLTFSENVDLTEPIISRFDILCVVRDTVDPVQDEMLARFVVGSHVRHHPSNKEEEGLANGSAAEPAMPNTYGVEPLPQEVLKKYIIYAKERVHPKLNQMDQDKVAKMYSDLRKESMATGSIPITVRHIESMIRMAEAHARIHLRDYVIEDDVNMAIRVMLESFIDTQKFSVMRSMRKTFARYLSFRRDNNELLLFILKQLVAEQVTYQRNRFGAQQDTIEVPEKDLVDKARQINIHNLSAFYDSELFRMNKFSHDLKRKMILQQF

Columns and labels:
Assay in all cases: two-hybrid; Gal4 AD (pGADT7) and BD (pGBKT7) fusions co-transformed into AH109 yeast; growth on SCM-Trp-Leu-His (SCM-3) plates against SCM-Trp-Leu (SCM-2)
[1] = molecular target: hMCM2, yeast two-hybrid fusion (human) (UniProt P49736)
[2] = molecular target: T1, hORC2, yeast two-hybrid fusion (human) (UniProt Q13416)
T1 sequence: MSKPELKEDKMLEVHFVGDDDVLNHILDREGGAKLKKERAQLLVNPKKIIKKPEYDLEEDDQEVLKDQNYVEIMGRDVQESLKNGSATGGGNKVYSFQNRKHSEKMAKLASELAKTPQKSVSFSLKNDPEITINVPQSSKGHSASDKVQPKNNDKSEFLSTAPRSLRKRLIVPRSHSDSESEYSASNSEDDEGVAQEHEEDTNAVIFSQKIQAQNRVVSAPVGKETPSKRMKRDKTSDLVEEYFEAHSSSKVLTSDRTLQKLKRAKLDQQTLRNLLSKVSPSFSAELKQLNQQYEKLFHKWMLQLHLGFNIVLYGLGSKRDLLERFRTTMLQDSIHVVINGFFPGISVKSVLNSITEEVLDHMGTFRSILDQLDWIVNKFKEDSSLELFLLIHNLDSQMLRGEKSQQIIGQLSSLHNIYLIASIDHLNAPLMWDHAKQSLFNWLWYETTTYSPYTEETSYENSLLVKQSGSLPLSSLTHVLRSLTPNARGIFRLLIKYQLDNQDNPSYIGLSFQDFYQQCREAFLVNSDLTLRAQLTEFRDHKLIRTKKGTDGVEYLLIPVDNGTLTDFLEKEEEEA

[3] = molecular target: T2, hORC3, yeast two-hybrid fusion (human) (UniProt Q9UBD5)
T2 sequence: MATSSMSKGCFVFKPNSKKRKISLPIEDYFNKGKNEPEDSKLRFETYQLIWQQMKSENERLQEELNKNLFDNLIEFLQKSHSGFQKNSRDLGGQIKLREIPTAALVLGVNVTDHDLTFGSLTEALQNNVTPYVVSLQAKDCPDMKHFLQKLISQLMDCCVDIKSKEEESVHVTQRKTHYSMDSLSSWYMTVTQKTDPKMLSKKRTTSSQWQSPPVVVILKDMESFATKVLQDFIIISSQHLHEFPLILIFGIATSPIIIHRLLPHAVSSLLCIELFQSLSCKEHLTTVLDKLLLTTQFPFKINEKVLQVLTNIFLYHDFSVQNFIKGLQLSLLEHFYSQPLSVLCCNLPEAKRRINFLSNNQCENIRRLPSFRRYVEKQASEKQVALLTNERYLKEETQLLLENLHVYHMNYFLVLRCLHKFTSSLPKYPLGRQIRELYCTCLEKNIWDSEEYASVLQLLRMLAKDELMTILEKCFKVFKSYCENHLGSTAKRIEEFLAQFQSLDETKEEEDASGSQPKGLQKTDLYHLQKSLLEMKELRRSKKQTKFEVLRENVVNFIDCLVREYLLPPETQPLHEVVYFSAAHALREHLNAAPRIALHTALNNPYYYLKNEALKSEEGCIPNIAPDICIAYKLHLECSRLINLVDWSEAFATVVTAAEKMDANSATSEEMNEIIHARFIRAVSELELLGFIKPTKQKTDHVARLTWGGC

- binding [1]: binds
- binding [2]: binds
- binding [3]: binds
B1: hIPI3 (WDR18, WD repeat domain 18), yeast two-hybrid fusion (protein, UniProt Q9BV38 1-432)
chain: MAAPMEVAVCTDSAAPMWSCIVWELHSGANLLTYRGGQAGPRGLALLNGEYLLAAQLGKNYISAWELQRKDQLQQKIMCPGPVTCLTASPNGLYVLAGVAESIHLWEVSTGNLLVILSRHYQDVSCLQFTGDSSHFISGGKDCLVLVWSLCSVLQADPSRIPAPRHVWSHHALPITDLHCGFGGPLARVATSSLDQTVKLWEVSSGELLLSVLFDVSIMAVTMDLAEHHMFCGGSEGSIFQVDLFTWPGQRERSFHPEQDAGKVFKGHRNQVTCLSVSTDGSVLLSGSHDETVRLWDVQSKQCIRTVALKGPVTNAAILLAPVSMLSSDFRPSLPLPHFNKHLLGAEHGDEPRHGGLTLRLGLHQQGSEPSYLDRTEQLQAVLCSTMEKSVLGGQDQLRVRVTELEDEVRNLRKINRDLFDFSTRFITRPAK
